# Data from the supplement of paper PMC9177965.
# The list shows a part of the results, in another mix than the full data.
# Tested on: HT29 sg-Ctrl (RNF43 wildtype)
# Assay: cell viability activity relative to DMSO (negative = inhibition); higher = more viable cells (less growth inhibition)
# Conditions: 5 µM; 96 h
# Description: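 Broad Repurposing Library primary screen at a single dose of 5 uM. HT29 sg-Ctrl and HT29 RNF43 G659fs CRISPR-edited isogenic cells were seeded at 2500 cells/well in 384-well plates in duplicate and treated for 96 h. Viability was read by CellTiter-Glo and reported as % activity relative to DMSO, with MG132 as the positive control (negative = growth inhibition).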
row,SMILES,cell viability activity [%]
1,Cc1nc2c(-c3cnc(N)nc3)nc(N3CCOCC3)nc2n1C(C)C,-61.7
2,COc1cc(N2CCN(C(C)=O)CC2)ccc1Nc1ncc(Cl)c(Nc2ccc(N3CCN(C(C)=O)CC3)cc2OC)n1,-21.5
